Test results taken from paper PMC4538566 (Journal of Medicinal Chemistry, 2015).

Test: In situ rat perfusion
Assay type: in vivo
Conditions: 100 μM, six independent experiments

CC(C)NCC(O)COc1ccc(CC(N)=O)cc1 (stereo not shown) [atenolol]
Ka1 absorption rate coefficient: 0.22 h^–1
